This is one part of the list. Further columns of the screen follow, without active or inactive calls. Most of these compounds were active or inconclusive in the main read-out, so they are no random draw. The note in brackets gives the kind of curve behind each potency; many fits are weak.
Experiment: qHTS Assay for Lipid Storage Modulators in Drosophila S3 Cells;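 as to cell number change: cells counted by Cell Tracker Red CMTPX staining in the red channel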
Conditions: BODIPY lipid droplet fluorescence, 18-24 h; for cell number change: measured here: cell count max response, cells fed with added oleic acid
In short: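 Drosophila S3 cells loaded with oleic acid (400 uM, as added) and compounds at several concentrations; lipid droplets imaged by 488-nm laser-scanning cytometry, 500–530 nm intensity and object ratio to cell channel. Percent activity normalized to 20 uM Triacsin C.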

[1] = measured here: cell number channel AC50, cells fed with added oleic acid
[2] = measured here: lipid fluorescence (Fed channel) AC50, cells fed with added oleic acid

Row | SMILES | cell number change | AC50 [1] | AC50 [2]
1 | O=c1cc(CSc2nnc3ccccn23)c2c(ccc3ccccc32)o1 | -35.6% | 7.31 µM [falling, partial curve, poor fit] | 5.17 µM [rising, partial curve, poor fit]
2 | CN(CCC1CCOCC1)C(=O)C1CCC(=O)N(CCc2ccccc2)C1 (configuration not stated) | 2.35% |  | 9.2 µM [rising, partial curve, poor fit]
3 | CCOC(=O)C1CCCN(c2c(NCCc3ccc(C)cc3)c(=O)c2=O)C1 (configuration not stated) | 14.5% | 4.11 µM [rising, single point] | 
4 | CC(C)CC(C(=O)Oc1ccc2c3c(c(=O)oc2c1)CCC3)N1C(=O)c2ccccc2C1=O (configuration not stated) | -16.7% |  | 23.1 µM [falling, partial curve]
5 | O=c1cc(CN2CCN(c3ccc(O)cc3)CC2)nc2scc(-c3ccccc3)n12 | 34.7% | 5.8 µM [rising, full curve, poor fit] | 29.1 µM [rising, single point]
6 | CC(=O)c1cc(C#N)c(N2CCOCC2)nc1C | -3.62% | 6.51 µM [falling, single point] | 
7 | Cc1cc(S(=O)(=O)N2CCCC(N(C)CCc3ccccn3)C2)c(C)s1 (configuration not stated) | -3.18% |  | 
8 | O=C(Nc1ccc2c(c1)OCO2)N1CCN(c2ccccc2Cl)CC1 |  | 0.58 µM [rising, partial curve, poor fit] | 0.146 µM [rising, full curve]
9 | CC1CN(C(=O)c2ccc3c(c2)OCO3)CC(C)O1 (configuration not stated) | 9.22% |  | 6.51 µM [rising, single point]
10 | COCC(C)NC(=O)C1CC(=O)N(c2ccc(C)cc2)C1 (configuration not stated) | -1.09% | 0.82 µM [rising, full curve] | 
11 | CCS(=O)(=O)c1ccc(C(=O)Nc2ccccc2OC)c(Cl)c1Cl | 4.71% |  | 0.092 µM [falling, full curve, poor fit]
12 | CCOC(=O)c1csc(NC(=O)CC2CCCC2)n1 | 52.1% | 7.31 µM [rising, partial curve, poor fit] | 0.0184 µM [rising, full curve, poor fit]
13 | COc1ccc(N(C(=O)c2cnccn2)C(C(=O)NC2CCCCC2)c2ccc(O)cc2)cc1 (configuration not stated) | 11.5% |  | 
14 | Cc1ccc(C(=O)NCC(=O)NCCSc2ccc(Br)cc2)cc1 | -10.8% |  | 
15 | NC(=O)c1ccc(NC(=O)CCC(=O)N2CCN(S(=O)(=O)c3ccc(Cl)cc3)CC2)cc1 | -17.6% |  | 32.6 µM [falling, partial curve]
16 | CCOC(=O)C1CCCN1C(=O)c1ccc(OC)c(Br)c1 (configuration not stated) | -48% | 4.11 µM [falling, partial curve, poor fit] | 

Single records, as listed above:
O=c1cc(CSc2nnc3ccccn23)c2c(ccc3ccccc32)o1 in the list: cell number change: -35.6%; AC50 [1]: 7.31 µM [falling, partial curve, poor fit]; AC50 [2]: 5.17 µM [rising, partial curve, poor fit]
CC1CN(C(=O)c2ccc3c(c2)OCO3)CC(C)O1 (configuration not stated) in the list: cell number change: 9.22%; AC50 [2]: 6.51 µM [rising, single point]

— PubChem BioAssay AID2685 (National Center for Advancing Translational Sciences (NCATS), 2010)
